One assay addresses NF-κB p65 (UniProt Q04206). Briefly: co-IP; IP and Western blot, cytoplasm, with rising doses of circIKBKB. A general note: A western blot detects proteins with antibodies after separation by electrophoresis.
Another assay has as its target NF-κB p65, Q04206. Briefly: co-IP; IP and Western blot, nuclear, cells with circIKBKB overexpressed or silenced. The following applies: remark: other sources report otherwise.

By UniProt entry, the sequences of proteins in these tests, tags left out.
UniProt Q04206: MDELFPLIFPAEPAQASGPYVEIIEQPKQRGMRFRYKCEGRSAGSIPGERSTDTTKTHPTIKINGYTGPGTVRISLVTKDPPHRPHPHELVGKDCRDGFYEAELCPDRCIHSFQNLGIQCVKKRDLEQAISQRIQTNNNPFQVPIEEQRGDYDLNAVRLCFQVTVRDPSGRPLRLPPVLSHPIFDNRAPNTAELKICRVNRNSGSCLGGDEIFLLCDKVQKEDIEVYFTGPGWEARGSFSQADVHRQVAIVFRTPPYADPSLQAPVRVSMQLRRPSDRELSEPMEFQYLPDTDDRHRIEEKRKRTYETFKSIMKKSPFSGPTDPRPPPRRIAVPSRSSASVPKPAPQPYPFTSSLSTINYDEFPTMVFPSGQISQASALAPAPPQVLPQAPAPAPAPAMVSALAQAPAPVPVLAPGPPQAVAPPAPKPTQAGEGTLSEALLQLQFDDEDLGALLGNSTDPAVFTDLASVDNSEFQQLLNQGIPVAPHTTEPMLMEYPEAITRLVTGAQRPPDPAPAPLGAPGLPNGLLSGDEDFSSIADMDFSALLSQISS

These are yes or no findings as the source states them, for the method shown. In cells and extracts the contact can be indirect. Some entries that bind do so weakly or less than the wild type.

B1: inhibitor of NF-κB kinase subunit beta (IKKβ) (enzyme, UniProt O14920 1-756)
chain: MSWSPSLTTQTCGAWEMKERLGTGGFGNVIRWHNQETGEQIAIKQCRQELSPRNRERWCLEIQIMRRLTHPNVVAARDVPEGMQNLAPNDLPLLAMEYCQGGDLRKYLNQFENCCGLREGAILTLLSDIASALRYLHENRIIHRDLKPENIVLQQGEQRLIHKIIDLGYAKELDQGSLCTSFVGTLQYLAPELLEQQKYTVTVDYWSFGTLAFECITGFRPFLPNWQPVQWHSKVRQKSEVDIVVSEDLNGTVKFSSSLPYPNNLNSVLAERLEKWLQLMLMWHPRQRGTDPTYGPNGCFKALDDILNLKLVHILNMVTGTIHTYPVTEDESLQSLKARIQQDTGIPEEDQELLQEAGLALIPDKPATQCISDGKLNEGHTLDMDLVFLFDNSKITYETQISPRPQPESVSCILQEPKRNLAFFQLRKVWGQVWHSIQTLKEDCNRLQQGQRAAMMNLLRNNSCLSKMKNSMASMSQQLKAKLDFFKTSIQIDLEKYSEQTEFGITSDKLLLAWREMEQAVELCGRENEVKLLVERMMALQTDIVDLQRSPMGRKQGGTLDDLEEQARELYRRLREKPRDQRTEGDSQEMVRLLLQAIQSFEKKVRVIYTQLSKTVVCKQKALELLPKVEEVVSLMNEDEKTVVRLQEKRQKELWNLLKIACSKVRGPVSGSPDSMNASRLSQPGQLMSQPSTASNSLPEPAKKSEELVAEAHNLCTLLENAIQDTVREQDQSFTALDWSWLQTEEEEHSCLEQAS
For the molecule B1, the binding entry in the assay with NF-κB p65 was “binds”.

B2: NF-κB inhibitor alpha (IκBα), P25963 1-317 (protein)
chain: MFQAAERPQEWAMEGPRDGLKKERLLDDRHDSGLDSMKDEEYEQMVKELQEIRLEPQEVPRGSEPWKQQLTEDGDSFLHLAIIHEEKALTMEVIRQVKGDLAFLNFQNNLQQTPLHLAVITNQPEIAEALLGAGCDPELRDFRGNTPLHLACEQGCLASVGVLTQSCTTPHLHSILKATNYNGHTCLHLASIHGYLGIVELLVSLGADVNAQEPCNGRTALHLAVDLQNPDLVSLLLKCGADVNRVTYQGYSPYQLTWGRPSTRIQQQLGQLTLENLQMLPESEDEESYDTESEFTEFTEDELPYDDCVFGGQRLTL
With B2, the binding entry in the assay with NF-κB p65, Q04206 is “binds”.
